The text below walks through data of article PMC6406935.

By UniProt entry, the sequences of proteins in these tests, tags left out.
UniProt P03372: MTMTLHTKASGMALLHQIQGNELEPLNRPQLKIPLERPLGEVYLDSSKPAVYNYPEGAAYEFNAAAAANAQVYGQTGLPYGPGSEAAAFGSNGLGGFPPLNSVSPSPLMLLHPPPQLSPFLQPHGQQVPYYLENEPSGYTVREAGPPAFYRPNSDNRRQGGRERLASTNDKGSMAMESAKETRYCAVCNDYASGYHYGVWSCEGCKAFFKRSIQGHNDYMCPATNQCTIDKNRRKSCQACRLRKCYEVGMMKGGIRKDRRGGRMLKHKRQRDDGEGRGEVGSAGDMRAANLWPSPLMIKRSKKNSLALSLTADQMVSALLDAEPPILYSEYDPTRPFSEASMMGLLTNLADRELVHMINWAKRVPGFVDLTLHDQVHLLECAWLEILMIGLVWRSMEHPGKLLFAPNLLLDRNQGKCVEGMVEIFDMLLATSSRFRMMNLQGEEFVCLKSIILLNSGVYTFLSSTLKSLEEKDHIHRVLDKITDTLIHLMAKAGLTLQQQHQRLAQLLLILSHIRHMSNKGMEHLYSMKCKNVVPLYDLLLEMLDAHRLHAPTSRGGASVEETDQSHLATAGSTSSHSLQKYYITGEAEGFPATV
UniProt Q04206: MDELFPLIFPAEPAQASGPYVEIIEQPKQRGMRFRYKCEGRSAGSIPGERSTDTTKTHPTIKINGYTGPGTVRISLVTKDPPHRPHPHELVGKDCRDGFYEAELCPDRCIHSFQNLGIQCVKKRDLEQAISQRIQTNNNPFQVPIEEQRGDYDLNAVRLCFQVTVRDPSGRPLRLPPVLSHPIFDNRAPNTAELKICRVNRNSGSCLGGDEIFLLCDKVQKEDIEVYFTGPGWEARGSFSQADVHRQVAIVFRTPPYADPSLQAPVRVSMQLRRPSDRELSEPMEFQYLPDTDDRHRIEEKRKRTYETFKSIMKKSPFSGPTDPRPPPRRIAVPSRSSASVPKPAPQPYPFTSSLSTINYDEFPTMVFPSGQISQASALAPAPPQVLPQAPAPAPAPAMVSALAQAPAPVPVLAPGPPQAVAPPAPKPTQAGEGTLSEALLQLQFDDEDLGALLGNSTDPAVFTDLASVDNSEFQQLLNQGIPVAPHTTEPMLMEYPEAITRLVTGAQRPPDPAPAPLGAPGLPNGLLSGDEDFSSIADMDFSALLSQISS
UniProt P40763: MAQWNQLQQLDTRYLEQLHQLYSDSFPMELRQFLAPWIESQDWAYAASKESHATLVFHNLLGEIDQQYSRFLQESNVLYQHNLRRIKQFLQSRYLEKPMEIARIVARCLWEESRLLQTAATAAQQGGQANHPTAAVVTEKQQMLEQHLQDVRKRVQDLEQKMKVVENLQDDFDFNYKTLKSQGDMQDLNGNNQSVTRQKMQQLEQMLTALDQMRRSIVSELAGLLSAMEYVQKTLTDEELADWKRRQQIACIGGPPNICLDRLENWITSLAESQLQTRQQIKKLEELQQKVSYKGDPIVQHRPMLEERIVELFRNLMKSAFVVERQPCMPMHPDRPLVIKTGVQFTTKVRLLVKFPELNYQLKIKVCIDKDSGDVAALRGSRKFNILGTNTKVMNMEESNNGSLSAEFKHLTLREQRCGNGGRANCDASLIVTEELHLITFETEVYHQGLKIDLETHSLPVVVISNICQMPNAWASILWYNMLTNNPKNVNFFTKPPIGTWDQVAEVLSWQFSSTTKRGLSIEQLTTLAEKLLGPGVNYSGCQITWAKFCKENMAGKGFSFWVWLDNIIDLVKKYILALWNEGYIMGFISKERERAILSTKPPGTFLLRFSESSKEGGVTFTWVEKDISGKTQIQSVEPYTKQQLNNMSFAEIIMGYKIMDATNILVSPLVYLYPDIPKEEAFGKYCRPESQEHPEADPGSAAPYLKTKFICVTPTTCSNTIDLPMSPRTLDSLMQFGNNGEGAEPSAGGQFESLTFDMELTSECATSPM

These are yes or no findings as the source states them, for the method shown. Binding seen in cells or lysates may run through a third protein. Some binding calls cover weakened binding; strength is not graded here.

This assay has as its target estrogen receptor alpha (human (endogenous in MCF-7)) (UniProt P03372). Briefly: co-IP; IP followed by Western blotting from MCF-7 cells, cultured alone or co-cultured with conditioned KG-1 macrophages, also under tamoxifen treatment; which protein was precipitated is not given. For orientation: Immunoblotting shows a protein as a band on a membrane.

For “NF-κB subunit p65 (from UniProt Q04206 1-551)”, the binding result is on record as “binds”.
With “signal transducer and activator of transcription 3 (from UniProt P40763 1-770)” the entry was “binds”.
